This note sets out measurements from article PMC8954794, “NMR Structure and Biophysical Characterization of Thermophilic Single-Stranded DNA Binding Protein from Sulfolobus Solfataricus”.

A weaker result is weaker than the reference pair of the same experiment. Protein sequences can lack the tags named with them.

The target in this series is T1, SsoSSB12-114 del1-11 (Sulfolobus solfataricus) (UniProt Q97W73).
T1 sequence (looked up): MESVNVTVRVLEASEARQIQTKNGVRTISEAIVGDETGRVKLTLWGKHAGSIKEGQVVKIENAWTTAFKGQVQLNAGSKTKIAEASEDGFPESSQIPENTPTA
Kind of series: NMR HSQC titration. To be noted: 25 C, some chemical shift changes on ssDNA addition, authors conclude DNA binding dramatically affected; Buffer A: 100 mM NaCl, 20 mM MES pH 6.5; NMR with 10% D2O at 25 and 50 C (SsoSSB12-114 at 25 C only); recombinant protein; residues 12-114; single-stranded DNA.

Regarding AAAAAAAAAAAAAAA [dA(15)], the binding result is “binds more weakly”.
